The record followed here is paper PMC4130184.

The target of the assay is T1, PLASTID REDOX … 2 (PRIN2), full length, fused to a cMyc-tag, expressed in Arabidopsis plants (Arabidopsis thaliana) (UniProt Q9XIK0).
T1 sequence: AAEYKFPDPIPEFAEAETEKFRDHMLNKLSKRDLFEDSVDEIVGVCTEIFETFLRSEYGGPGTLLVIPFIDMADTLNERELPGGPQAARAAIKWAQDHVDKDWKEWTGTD
Put plainly: affinity purification with mass spectrometry; PRIN2-cMyc complexes precipitated from chloroplast protein extract with anti-cMYC antibody on protein G magnetic beads, 1 h at 4°C; SDS-PAGE bands identified by mass spectrometry; non-transformed Col-0 as negative control; performed twice.

Results are given in words; binding and its absence hold for the method and conditions named. In cells and extracts the contact can be indirect. These calls come from enrichment with a bait or labelling near it, and not all partners need be listed. Sequences can lack the tags named with a protein.

B1: CHLOROPLAST STEM-LOOP BINDING PROTEIN 41 kDa (CSP41b), endogenous in Arabidopsis chloroplasts (protein, UniProt Q9SA52 51-378)
chain: SSEKKILIMGGTRFIGLFLSRILVKEGHQVTLFTRGKSPIAKQLPGESDQDFADFSSKILHLKGDRKDYDFVKSSLSAEGFDVVYDINGREAEEVEPILEALPKLEQYIYCSSAGVYLKSDILPHCEEDAVDPKSRHKGKLETESLLQSKGVNWTSIRPVYIYGPLNYNPVEEWFFHRLKAGRPIPVPNSGIQISQLGHVKDLATAFLNVLGNEKASREIFNISGEKYVTFDGLAKACAKAGGFPEPEIVHYNPKEFDFGKKKAFPFRDQHFFASVEKAKHVLGWKPEFDLVEGLTDSYNLDFGRGTFRKEADFTTDDMILSKKLVLQ
In the case of B1, the binding result is reported as “binds”.
